# For at least one compound, name, drawing or mass did not settle the structure.
# Experiment: Electrical conductivity (Sartorius PT-20 conductivity meter)
# Format: physicochemical
# Conditions: room temperature; the temperature is printed per sample (22.6-25.6° C.)
smiles,measurement,value
"CCCCC(CC)COC(=O)C(C#N)=C(c1ccccc1)c1ccccc1 (stereo not shown) [Octocrylene (100%), 2-ethyl hexyl-2-cyano-3,3-diphenylacrylate]",Electrical conductivity [μm/cm] (at ° C.),0.0 μm/cm
